According to article PMC3749933:

Target: T1, FLAG-tagged CESA9 (rice) (UniProt Q69P51)
T1 sequence: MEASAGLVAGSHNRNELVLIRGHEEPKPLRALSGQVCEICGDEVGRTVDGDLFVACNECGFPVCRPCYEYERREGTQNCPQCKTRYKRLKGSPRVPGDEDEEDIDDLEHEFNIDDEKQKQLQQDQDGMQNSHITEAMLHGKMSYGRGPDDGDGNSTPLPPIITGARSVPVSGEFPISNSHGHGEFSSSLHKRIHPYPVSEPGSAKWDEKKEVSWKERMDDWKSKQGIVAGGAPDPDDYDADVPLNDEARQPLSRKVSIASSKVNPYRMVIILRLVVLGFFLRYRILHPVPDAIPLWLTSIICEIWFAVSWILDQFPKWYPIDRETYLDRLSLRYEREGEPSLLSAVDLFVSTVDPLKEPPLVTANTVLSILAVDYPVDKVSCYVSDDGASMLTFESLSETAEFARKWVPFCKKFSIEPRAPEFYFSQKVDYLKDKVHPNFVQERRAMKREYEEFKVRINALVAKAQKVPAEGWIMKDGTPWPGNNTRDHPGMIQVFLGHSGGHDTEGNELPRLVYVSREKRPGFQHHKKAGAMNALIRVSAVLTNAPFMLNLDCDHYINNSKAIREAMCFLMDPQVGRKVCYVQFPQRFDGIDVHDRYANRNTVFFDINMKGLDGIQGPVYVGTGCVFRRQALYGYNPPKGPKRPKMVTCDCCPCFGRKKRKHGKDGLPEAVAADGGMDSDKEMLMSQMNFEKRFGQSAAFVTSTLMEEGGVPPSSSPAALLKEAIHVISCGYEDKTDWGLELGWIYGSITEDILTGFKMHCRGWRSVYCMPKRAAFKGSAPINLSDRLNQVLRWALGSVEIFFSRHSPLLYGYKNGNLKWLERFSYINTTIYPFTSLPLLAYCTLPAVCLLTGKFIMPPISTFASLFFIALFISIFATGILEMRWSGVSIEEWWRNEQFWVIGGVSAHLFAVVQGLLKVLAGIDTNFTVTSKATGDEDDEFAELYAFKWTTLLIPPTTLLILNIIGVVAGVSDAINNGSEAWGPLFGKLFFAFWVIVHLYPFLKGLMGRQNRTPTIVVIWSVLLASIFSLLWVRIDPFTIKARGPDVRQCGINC
Experiment: co-IP; total membrane proteins from young internodes of transgenic rice expressing FLAG-CESA9, incubated with anti-FLAG M2 affinity gel overnight at 4°C; input and output blotted with anti-CESA, anti-BC1 and anti-UGPase antibodies

Question: Which binding does the source give for “UDP-glucose pyrophosphorylase (rice (endogenous in rice internodes)) (enzyme)” here?
Answer: no binding

Results are given in words; binding and its absence hold for the method and conditions named. In cells and extracts the contact can be indirect. Tags and fused reporters may be left off the sequences shown.
